Source: article PMC8405615
No constants are given. Whether binding was seen depends on the method and setting. In cells and extracts the contact can be indirect. A yes stands for co-enrichment or nearness to the bait. Other partners may have been found. Tags and fused reporters may be left off the sequences shown.

By UniProt entry, the sequences of proteins in these tests, tags left out.
UniProt Q93009: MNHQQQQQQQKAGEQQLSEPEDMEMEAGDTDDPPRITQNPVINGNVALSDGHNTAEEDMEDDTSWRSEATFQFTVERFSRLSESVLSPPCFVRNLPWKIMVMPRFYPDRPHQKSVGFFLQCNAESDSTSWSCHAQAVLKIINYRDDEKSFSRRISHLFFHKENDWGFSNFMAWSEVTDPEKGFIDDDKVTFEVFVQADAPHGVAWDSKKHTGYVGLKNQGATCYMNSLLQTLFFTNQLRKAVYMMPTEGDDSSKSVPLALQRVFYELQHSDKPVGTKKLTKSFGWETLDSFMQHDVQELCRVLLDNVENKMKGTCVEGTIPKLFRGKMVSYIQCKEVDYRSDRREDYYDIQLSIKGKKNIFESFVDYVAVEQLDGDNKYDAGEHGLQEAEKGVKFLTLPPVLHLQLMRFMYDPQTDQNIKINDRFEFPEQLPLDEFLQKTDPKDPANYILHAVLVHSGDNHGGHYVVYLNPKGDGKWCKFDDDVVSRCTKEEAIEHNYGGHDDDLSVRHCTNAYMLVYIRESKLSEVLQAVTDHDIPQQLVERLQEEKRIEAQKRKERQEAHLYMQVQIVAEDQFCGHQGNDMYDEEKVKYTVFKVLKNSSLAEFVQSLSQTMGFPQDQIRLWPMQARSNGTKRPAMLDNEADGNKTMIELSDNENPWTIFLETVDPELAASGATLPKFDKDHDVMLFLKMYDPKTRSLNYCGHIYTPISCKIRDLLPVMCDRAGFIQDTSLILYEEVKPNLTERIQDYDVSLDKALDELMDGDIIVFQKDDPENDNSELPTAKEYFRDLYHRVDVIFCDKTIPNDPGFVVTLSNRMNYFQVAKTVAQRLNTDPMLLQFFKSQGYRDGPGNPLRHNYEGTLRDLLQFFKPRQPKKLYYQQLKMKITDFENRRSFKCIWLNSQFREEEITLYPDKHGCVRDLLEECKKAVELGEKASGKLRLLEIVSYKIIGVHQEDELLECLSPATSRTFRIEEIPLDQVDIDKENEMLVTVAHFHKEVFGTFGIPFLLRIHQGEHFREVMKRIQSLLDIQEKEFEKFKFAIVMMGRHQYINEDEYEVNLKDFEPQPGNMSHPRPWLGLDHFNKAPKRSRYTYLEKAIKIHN

T1: SFB-ZEB1, triple-epitope (S-protein, FLAG tag, and streptavidin-binding peptide)-tagged zinc finger E-box-binding homeobox 1 (UniProt P37275)
T1 sequence: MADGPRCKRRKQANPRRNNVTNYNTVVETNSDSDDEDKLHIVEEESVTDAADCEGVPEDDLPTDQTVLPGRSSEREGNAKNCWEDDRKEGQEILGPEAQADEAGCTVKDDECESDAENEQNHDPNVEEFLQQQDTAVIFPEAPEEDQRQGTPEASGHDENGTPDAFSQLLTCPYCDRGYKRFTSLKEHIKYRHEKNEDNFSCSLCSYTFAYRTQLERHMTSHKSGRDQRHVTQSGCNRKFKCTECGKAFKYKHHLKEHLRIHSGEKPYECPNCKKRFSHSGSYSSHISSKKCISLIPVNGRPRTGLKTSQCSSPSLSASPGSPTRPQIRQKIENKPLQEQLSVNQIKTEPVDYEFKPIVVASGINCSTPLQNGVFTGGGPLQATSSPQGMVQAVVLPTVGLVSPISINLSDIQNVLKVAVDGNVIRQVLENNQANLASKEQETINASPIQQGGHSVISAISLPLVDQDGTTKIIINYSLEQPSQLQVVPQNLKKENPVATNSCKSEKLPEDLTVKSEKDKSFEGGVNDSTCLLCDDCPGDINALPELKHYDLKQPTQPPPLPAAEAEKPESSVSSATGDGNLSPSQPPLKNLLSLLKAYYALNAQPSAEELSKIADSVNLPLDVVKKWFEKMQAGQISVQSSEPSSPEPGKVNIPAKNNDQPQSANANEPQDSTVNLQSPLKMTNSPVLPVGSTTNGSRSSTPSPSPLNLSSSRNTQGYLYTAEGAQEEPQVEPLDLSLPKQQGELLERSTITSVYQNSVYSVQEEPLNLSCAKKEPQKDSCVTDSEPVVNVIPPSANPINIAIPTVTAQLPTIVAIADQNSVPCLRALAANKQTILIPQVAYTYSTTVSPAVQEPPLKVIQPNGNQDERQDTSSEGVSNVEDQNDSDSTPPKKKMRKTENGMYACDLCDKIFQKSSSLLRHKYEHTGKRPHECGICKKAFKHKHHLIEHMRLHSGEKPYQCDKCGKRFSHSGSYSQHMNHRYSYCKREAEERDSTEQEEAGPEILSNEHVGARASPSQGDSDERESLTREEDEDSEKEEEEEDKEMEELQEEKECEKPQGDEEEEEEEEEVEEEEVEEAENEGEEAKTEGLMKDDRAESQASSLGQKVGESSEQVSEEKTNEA


Target: T1, SFB-ZEB1, triple-epitope (S-protein, FLAG tag, and streptavidin-binding peptide)-tagged zinc finger E-box-binding homeobox 1
Test: affinity purification with mass spectrometry; 293T cells transfected with SFB-ZEB1, 10 µM MG132 for 6 h before collection; tandem-affinity purification on streptavidin Sepharose beads and S-protein agarose beads, then mass spectrometry

| Molecule | binding |
| --- | --- |
| CTBP2 (from UniProt P56545 1-445) | binds |
| USP7 (from UniProt Q93009 1-1102) (enzyme) | binds |
| CHFR (endogenous, found with SFB-ZEB1 by mass spectrometry) (enzyme, UniProt Q96EP1 1-664) MERPEEGKQSPPPQPWGRLLRLGAEEGEPHVLLRKREWTIGRRRGCDLSFPSNKLVSGDHCRIVVDEKSGQVTLEDTSTSGTVINKLKVVKKQTCPLQTGDVIYLVYRKNEPEHNVAYLYESLSEKQGMTQESFEANKENVFHGTKDTSGAGAGRGADPRVPPSSPATQVCFEEPQPSTSTSDLFPTASASSTEPSPAGRERSSSCGSGGGGISPKGSGPSVASDEVSSFASALPDRKTASFSSLEPQDQEDLEPVKKKMRGDGDLDLNGQLLVAQPRRNAQTVHEDVRAAAGKPDKMEETLTCIICQDLLHDCVSLQPCMHTFCAACYSGWMERSSLCPTCRCPVERICKNHILNNLVEAYLIQHPDKSRSEEDVQSMDARNKITQDMLQPKVRRSFSDEEGSSEDLLELSDVDSESSDISQPYVVCRQCPEYRRQAAQPPHCPAPEGEPGAPQALGDAPSTSVSLTTAVQDYVCPLQGSHALCTCCFQPMPDRRAEREQDPRVAPQQCAVCLQPFCHLYWGCTRTGCYGCLAPFCELNLGDKCLDGVLNNNSYESDILKNYLATRGLTWKNMLTESLVALQRGVFLLSDYRVTGDTVLCYCCGLRSFRELTYQYRQNIPASELPVAVTSRPDCYWGRNCRTQVKAHHAMKFNHICEQTRFKN | binds |
